Experimental data: PMC5109244
Results are given in words; binding and its absence hold for the method and conditions named.

By UniProt entry, the sequences of proteins in these tests, tags left out. Residues count along the entry.
UniProt Q6UXN8, residues 57-241: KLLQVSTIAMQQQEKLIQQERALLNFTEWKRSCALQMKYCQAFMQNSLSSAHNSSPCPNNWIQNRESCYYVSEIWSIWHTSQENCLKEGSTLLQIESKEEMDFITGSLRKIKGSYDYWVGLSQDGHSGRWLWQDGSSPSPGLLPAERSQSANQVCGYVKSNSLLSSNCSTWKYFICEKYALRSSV

Legend:
[1] = biological target: human DNGR-1 ECD (extracellular domain of human DNGR-1) (human) (UniProt Q6UXN8); experiment: condition: only with DTT (reducing SDS-PAGE), in PBS; reducing SDS-PAGE and Western blot; purified ECD diluted into PBS (neutral conditions); DTT in Laemmli buffer, boiled; anti-FLAG detection; both purified
[2] = biological target: human DNGR-1 ECD (extracellular domain of human DNGR-1) (human) (UniProt Q6UXN8); experiment: condition: only with DTT or β-ME (reducing SDS-PAGE, neutral conditions); reducing SDS-PAGE and Western blot; supernatants with FLAG-tagged ECD proteins, neat or diluted into PBS (neutral conditions); reduced with DTT (100 mM) or β-ME in Laemmli buffer; anti-FLAG detection

- binding [1]: no binding
- binding [2]: no binding
Substance: human DNGR-1 ECD (extracellular domain of human DNGR-1) (from UniProt Q6UXN8 57-241) (domain or fragment)
